{"source": "patent US10442835B2", "about": "“Water-soluble rapamycin derivatives” (Zhejiang Hisun Pharmaceutical Co., Ltd., priority 2016, dated 2019)", "system": "human renal cell carcinoma OS-RC-2", "experiment": "In vivo inhibitory activity against human renal cell carcinoma OS-RC-2 in nude mice", "conditions": "everolimus orally three times a week, 2 mg/Kg and 6 mg/Kg; after 32 days", "experimental": "The tumor inhibition rate was calculated.", "note": "At least one structure is not confirmed: it was looked up by name or label, or the drawing left a doubt."}
{"smiles": "CO[C@H]1C[C@@H]2CC[C@@H](C)[C@@](O)(O2)C(=O)C(=O)N2CCCC[C@H]2C(=O)O[C@H]([C@H](C)C[C@@H]2CC[C@@H](OCCO)[C@H](OC)C2)CC(=O)[C@H](C)/C=C(\\C)[C@@H](O)[C@@H](OC)C(=O)[C@H](C)C[C@H](C)/C=C/C=C/C=C/1C", "note": "[Everolimus, reference compound]", "values": [{"measurement": "inhibition of the increase of tumor volumes (FIG. 7)", "result": "neither the high-dose group of 6 mg/Kg nor the low-dose group of 2 mg/Kg can effectively inhibit the increase of tumor volumes"}]}
